Values joined by “and” are separate entries in the source; they are usually repeats but may differ in a detail not shown here. Equal entries are not always repeated. Out of some 300,000 compounds screened, about 5,400 (1.8%) were called active. Inconclusive results, whose numbers are uncertain, are shown with a selection of clear calls. Calls follow the shape of the full dose curve; tested in HEK293 cells. Potencies beside an inconclusive call are fits to weak or partial responses and may not hold up.
Experiment: qHTS for inhibitors of binding or entry into cells for Marburg Virus
Conditions: Marburg virus pseudotyped entry inhibition, cell reporter; activity change, negative = inhibition: at 37.8 µM (top of the series) unless noted
% is scaled to controls: 0 for no effect and ±100 for the full control effect; potency is read from the fitted curve at half-maximal effect.

| SMILES | Potency | activity change, negative = inhibition |
| --- | --- | --- |
| CC(C)(C)c1cc[n+](C2=C([O-])c3ccccc3C(=O)/C2=N\S(=O)(=O)c2cccs2)cc1 | active: 10 µM |  |
| CC(=Nc1ccccc1C(F)(F)F)c1ccncc1 | inconclusive: 6.31 µM [activator, single point] |  |
| C/C(CC(=O)Nc1ccc(N(C)C)cc1)=N\NC(=O)c1ccncc1 |  | inactive: 4.24% [at 46.1 µM] |
| O=C(CSc1nnc(-c2ccccc2)n1-c1ccc(Cl)cc1)NC1CCS(=O)(=O)C1 (stereo unspecified) | inconclusive: 22.4 µM [activator, partial curve, poor fit] |  |
| O=C(Nc1ccc2snnc2c1)Nc1cccc2ccccc12 | inconclusive: 11.2 µM [inhibitor, partial curve, poor fit] |  |
| CC(C)c1cccc(OCCN2CCCC2)c1 |  | inactive: 0.429% [at 46.1 µM] |
| COc1ccc(OC(C)C(=O)NC2CC(C)(C)NC(C)(C)C2)cc1 (stereo unspecified) |  | inactive: 0.859% |
| O=C(Nc1ccncc1)c1cc(F)cc(F)c1 |  | inactive: -12.9% |
| c1ccc(-c2cccc(-c3ccccn3)n2)nc1 | active: 2.06 µM |  |
| C[C@H](NS(=O)(=O)c1ccccc1)C(=O)OCC(=O)NC(=O)Nc1ccc2c(c1)OCCO2 | inconclusive: 25.9 µM [activator, single point] |  |
| CN(Cc1ccc2ccccc2c1)C(=O)c1ccc(C(F)(F)F)cc1 |  | inactive: 1.95% [at 46.1 µM] |
| CN(CCC#N)C(=O)c1cc2c(s1)-c1ccccc1SC2 | inconclusive: 1.26 µM [activator, single point] |  |
| COCCCNCCOc1ccc(C(C)(C)c2ccccc2)cc1 | active: 16.4 µM |  |
| O=c1cc(/C=C/c2cccs2)[nH]c2ccccc12 | active: 4.11 µM |  |
| Cn1c(=O)c2c(ncn2CC(=O)N(Cc2ccccc2)c2ccccn2)n(C)c1=O | inconclusive: 29.1 µM [activator, single point] |  |
| CCCSc1nnc(NC(=O)c2ccco2)s1 | inconclusive: 20 µM [activator, single point] |  |
| CC1CC(C)C(=NNC(N)=O)C(C(O)CC2CCC(=O)NC2=O)C1 (stereo unspecified) | inconclusive: 20 µM [inhibitor, partial curve, poor fit] |  |
| CCN1CCN(C(=O)c2cc(COc3ccc4ncccc4c3)on2)CC1 |  | inactive: -18.9% [at 46.1 µM] |
| Cc1cc(NC(c2ccc(Cl)cc2)c2ccc3cccnc3c2O)no1 (stereo unspecified) | inconclusive: 11.2 µM [inhibitor, partial curve, poor fit] |  |
| CCc1ccc(CCC(=O)Nc2ccc(C)c(C)c2)o1 |  | inactive: -0.794% |
| COc1ccc(/C=C/C(=O)Nc2ccc(-n3nncc3-c3ccccc3)cc2)cc1OC | inconclusive: 25.1 µM [inhibitor, partial curve, poor fit] |  |
| CC(C)C12CN3CC(C(C)C)(CN(C1)C3(C)C)C2=O | inconclusive: 4.47 µM [inhibitor, partial curve, poor fit] |  |
| S=C1NC2(CCCCC2)NN1c1ccccc1 | inconclusive: 6.31 µM [inhibitor, full curve] |  |
| Cc1ccc(-n2c(-c3ccccc3)c[n+]3c2CCC3)cc1 | inconclusive: 10 µM [inhibitor, partial curve, poor fit] |  |

| SMILES | Potency | activity change, negative = inhibition |
| --- | --- | --- |
| COc1ccc(CCN2C(=O)CS/C2=N\NC(=O)c2ccc(C(C)(C)C)cc2)cc1OC |  | inactive: -26.3% |
| COc1cccc(-n2c(=O)c3c(C)c(C)sc3n(Cc3ccccc3C#N)c2=O)c1 |  | inactive: -7.63% [at 46.1 µM] |
| Cc1nn(C)c(C(=O)Nc2ccn(Cc3c(F)c(F)cc(F)c3F)n2)c1[N+](=O)[O-] |  | inactive: -4.61% |
| O=[N+]([O-])c1nn(-c2ccccc2)n(O)c1=NCCc1ccccc1 | inconclusive: 31.6 µM [inhibitor, single point] |  |
| c1ccc(-c2cn3nc(-c4ccccc4)sc3n2)cc1 | inconclusive: 0.631 µM [inhibitor, full curve, poor fit] |  |
| Cc1nc(-c2ccc(C(=O)Nc3ccc(F)cc3)cc2)cs1 | active: 6.31 µM |  |
| CC(=O)NC(NC(=S)Nc1ccc(N=Nc2ccccc2C)cc1C)C(Cl)(Cl)Cl (stereo unspecified) | inconclusive: 23.1 µM [inhibitor, partial curve, poor fit] |  |
| Cc1ccc(OCc2nnc(SCC(=O)Nc3cccc4ccccc34)n2-c2ccccc2)cc1 | active: 12.6 µM |  |
| Cc1ccccc1Cn1nnc(C(=O)Nc2cccc(C)c2C)c1N |  | inactive: -8.69% |
| Cc1ccc(S(=O)(=O)N(CC(=O)N2CCOCC2)c2ccc(C(C)C)cc2)cc1 |  | inactive: -5.39% |
| Cn1nnnc1SCc1nnc(-c2ccc(Cl)cc2)o1 | inconclusive: 10 µM [activator, partial curve, poor fit] |  |
| CCCCCCC1CC(/C(C)=N\NC(N)=O)OC1=O (stereo unspecified) | inconclusive: 0.224 µM [inhibitor, full curve] |  |
| COc1ccc(N=C2NC(=O)C(CC(=O)NCCc3ccc(OC)c(OC)c3)S2)cc1 (stereo unspecified) |  | inactive: 15.1% [at 46.1 µM] |
| Cn1c(SCC(=O)N2CCOCC2)nnc1-c1ccc(Cl)cc1Cl | inconclusive: 29.1 µM [activator, single point] |  |
| CCOC(=O)c1nn(-c2ccc3c(c2)OCCO3)cc1O | inconclusive: 35.5 µM [inhibitor, single point] |  |
| Cc1ccc(N(CC2=NCCN2)c2cccc(O)c2)cc1 | active: 11.2 µM and active: 23.1 µM |  |
| Cn1ncc(Cl)c1C(=O)Nc1nc2ccc(Cl)cc2s1 |  | inactive: -42.4% |
| CCOC(=O)c1c(NC(C)=O)c2c3c(sc2n1Cc1cc(C)ccc1C)CCCC3 |  | inactive: -17.7% [at 46.1 µM] |
| O=C(N/C(=C\c1ccc(Cl)cc1)C(=O)N1CCOCC1)c1ccc([N+](=O)[O-])cc1 | inconclusive: 17.8 µM [activator, single point] |  |
| O=C(CN1C2CCCC1CC(NC(=O)c1ccco1)C2)Nc1ccccc1C(F)(F)F (stereo unspecified) | inconclusive: 0.164 µM [inhibitor, full curve, poor fit] |  |
| CCCSc1nnc(NC(=O)Nc2ccc(F)cc2)s1 | inconclusive: 31.6 µM [inhibitor, single point] |  |
| COc1ccc(COC(=O)N/N=C2/C[C@@H](O)[C@@H](O)[C@@H]3[C@@H]4C(=O)N(C[C@@H]5CCCO5)C(=O)[C@H]4CC[C@H]23)cc1 | inconclusive: 15.8 µM [activator, partial curve] |  |
| Cc1[nH]c2ccccc2c1C(=O)CSc1nc2cc(S(=O)(=O)N3CCCCC3)ccc2o1 | active: 7.3 µM |  |
| CNCCCOc1cc(C)cc(C)c1C | inconclusive: 7.08 µM [inhibitor, partial curve, poor fit] |  |

| SMILES | Potency | activity change, negative = inhibition |
| --- | --- | --- |
| CN(C)C(=O)c1ccccc1Sc1cc(Cl)ccc1Cl | inconclusive: 0.1 µM [inhibitor, full curve, poor fit] |  |
| O=C(Cn1cc(C(F)(F)F)cc(Cl)c1=O)NCc1ccc(Cl)cc1 |  | inactive: 2.65% [at 46.1 µM] |
| O=C(COC(=O)CC1CC2CCC1C2)NCc1ccc(F)cc1 (stereo unspecified) |  | inactive: -17% [at 46.1 µM] |
| O=C(C1CC1)N1CCc2cc(Br)cc(S(=O)(=O)NCCN3CCOCC3)c21 | inconclusive: 5.62 µM [inhibitor, single point] |  |
| CCc1ccc(C(=O)OCC(=O)Nc2cccc(S(=O)(=O)NC3=NCCCCC3)c2)cc1 | inconclusive: 1.26 µM [activator, single point] |  |
| CCCC(=O)Nc1ccc2oc(-c3ccc(O)c(Br)c3)nc2c1 | inconclusive: 8.91 µM [activator, partial curve, poor fit] |  |
| Nc1cc(C(=O)OCC(=O)NC(c2ccccc2)c2ccccc2)ccc1Cl | inconclusive: 6.31 µM [activator, single point] |  |
| COc1ccc(/C=C/C(=O)C2CC2)cc1Cn1nc(C)c([N+](=O)[O-])c1C | inconclusive: 1.58 µM [activator, partial curve, poor fit] |  |
| Cc1nc2nc(NCc3ccc(Br)cc3)[nH]n2c(=O)c1Cc1ccccc1 |  | inactive: 6.64% [at 46.1 µM] |
| COc1cc2c3c(c1OC)-c1cc(O)ccc1CC3NCC2 (stereo unspecified) |  | inactive: -19.4% [at 46.1 µM] |
| CC1(C)CC(=O)c2c(n(S(=O)(=O)c3ccccc3)c3ccc(NS(=O)(=O)c4ccccc4)cc23)C1 | inconclusive: 35.5 µM [inhibitor, single point] |  |
| O=C(CN1C(=O)c2ccccc2S1(=O)=O)c1ccccc1 | inconclusive: 17.8 µM [inhibitor, partial curve, poor fit] |  |
| CC1CCCC(C)N1NC(=O)c1cccc(S(=O)(=O)N2CCc3ccccc32)c1 (stereo unspecified) | inconclusive: 35.5 µM [inhibitor, single point] |  |
| CNC(=O)CSc1nc2ccccc2c(=O)n1CCc1ccccc1 |  | inactive: 4.86% |
| COC(=O)c1ccc(Nc2nc3ccc(C)cc3n3cnnc23)cc1 | inconclusive: 0.631 µM [inhibitor, full curve, poor fit] |  |
| Cc1ccc(C(=O)c2c(N)c(C(=O)Nc3cccc(C(F)(F)F)c3)c3ccccn23)cc1 |  | inactive: 6.87% [at 46.1 µM] |
| COc1ccc(-c2csc(/C(C#N)=C\c3ccc(OC)c([N+](=O)[O-])c3)n2)cc1 |  | inactive: 17.4% |
| COc1ccccc1Nc1c2c(nc3ccc(NC(=O)c4ccc(N(C)C)cc4)cc13)CCCC2 | active: 3.16 µM |  |
| Cc1sc2ncnc(N3CCC(C(=O)N(C)CC(=O)Nc4ccccc4Cl)CC3)c2c1C | inconclusive: 35.5 µM [inhibitor, single point] |  |
| CC1CC(C)CN(C(=O)COC(=O)CN2C(=O)c3ccccc3C2=O)C1 (stereo unspecified) |  | inactive: 5.61% [at 46.1 µM] |
| Cc1c(C(=O)OCCOC(C)C)[nH]c2c1C(=O)CC(c1ccco1)C2 (stereo unspecified) | inconclusive: 1.84 µM [inhibitor, partial curve] |  |
| COc1cccc(-c2nc(-c3ccc(NC(=O)c4ccncc4)cc3)no2)c1 | inconclusive: 32.6 µM [inhibitor, partial curve, poor fit] |  |
| Cc1cccc(C)c1NC(=O)C1(N2C(=O)CC2c2ccccc2)CCCCC1 (stereo unspecified) | inconclusive: 20 µM [inhibitor, single point] |  |

Quoted from the listing:
Value of `Cc1nc(-c2ccc(C(=O)Nc3ccc(F)cc3)cc2)cs1` under Potency: active: 6.31 µM
Value of `Cc1ccc(S(=O)(=O)N(CC(=O)N2CCOCC2)c2ccc(C(C)C)cc2)cc1` under activity change, negative = inhibition: inactive: -5.39%

Source: PubChem BioAssay AID540276 (National Center for Advancing Translational Sciences (NCATS), 2011)
